Source: PubChem BioAssay AID504444 (National Center for Advancing Translational Sciences (NCATS), 2011)
Out of some 360,000 compounds screened, about 7,500 (2.1%) were called active. Inconclusive results, whose numbers are uncertain, are shown with a selection of clear calls. The call rests on the fitted dose curve; in most records, active means well fitted inhibition curve with a large enough effect; inconclusive means small, poorly fitted or top-dose-only effect, or effect the other way; inactive means flat fitted curve, though single readings scatter. Potencies beside an inconclusive call are fits to weak or partial responses and may not hold up.

Assay: Nrf2 qHTS screen for inhibitors; further: nearly all actives have a fitted effect of over 60% in size
Settings: A549 ARE-Fluc reporter, luciferase luminescence, 18-24 h; activity change, negative = inhibition: at 46 µM (top of the series)
Procedure, shortened: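 Nrf2 activity is the BugLite luminescence, read 15 min after reagent at room temperature, following CellTiter-Fluor cytotoxicity readout (30 min, 37C). Compound titrations were applied for 18-24 h to 5000 A549 ARE_Fluc cells/well in 5% FBS OPTI-MEM.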
On the % scale 0 is the no-effect control and ±100 the full control effect; potency means the concentration at half of the fitted maximal effect.

SMILES | activity change, negative = inhibition | Potency
CC(C)OCCCNC(=O)c1c(N)n(/N=C/c2ccccn2)c2nc3ccccc3nc12 | inactive: -23.7% | –
COc1cc(C(=O)Nc2ccc(S(=O)(=O)N3CCc4ccccc43)cc2)cc(OC)c1OC | – | inconclusive: 18.4 µM [falling, partial curve, poor fit]
CCCCN=C(C)c1c(O)c2ccccc2oc1=O | – | inconclusive: 8.2 µM [activator, partial curve, poor fit]
CN1CCN(C2CCN(c3ccc(Nc4nnc(Cl)c(Nc5ccccc5S(C)(=O)=O)n4)c(OC(CF)CF)c3)CC2)CC1 | inactive: 1.58% | –
CCc1cc2c(=O)n(Cc3ccco3)c(SCC(=O)N3CCCc4ccccc43)nc2s1 | – | active: 25.9 µM
O=C(OCCOc1ccccc1Cl)c1cc(S(=O)(=O)N2CCCCC2)ccc1N1CCOCC1 | – | active: 6.51 µM
Cc1cccc(/C=C/C(=O)c2ccc([N+](=O)[O-])o2)c1 | – | inconclusive: 29.1 µM [falling, single point]
COc1cccc(-c2cc3nc(-c4ccccc4)cc(N4CCCC(O)C4)n3n2)c1 (stereo not drawn) | – | inconclusive: 11.6 µM [falling, partial curve, poor fit]
Cc1ccccc1NC(NC(=O)c1cccs1)C(Cl)(Cl)Cl (stereo not drawn) | – | inconclusive: 25.9 µM [falling, single point]
O=C(O)c1ccc(Nc2ncnc3ccccc23)cc1 | – | inconclusive: 1.84 µM [falling, partial curve, poor fit]
COC(=O)N/N=C/c1cc(Cl)cc(Cl)c1OCc1ccc(F)cc1 | inactive: -14.7% | –
CCOc1ccc(NC(=O)c2cccc(-n3cnnn3)c2)cc1 | – | inconclusive: 2.31 µM [falling, partial curve, poor fit]
CC(C)(C)c1ccc(C(=O)NNC(=S)NCc2ccco2)cc1 | – | inconclusive: 4.11 µM [activator, partial curve, poor fit]
CC1(C)OC(=O)C(=NNc2ccccc2[N+](=O)[O-])C(=O)O1 | – | inconclusive: 29.1 µM [activator, single point]
Cc1c(C(=O)N2CCOCC2)sc(NC(=O)c2ccc([N+](=O)[O-])cc2)c1C#N | – | inconclusive: 16.4 µM [falling, partial curve, poor fit]
Nc1nc(N)c(S(=O)(=O)c2ccccc2)c(Nc2ccc(F)cc2)n1 | inactive: -29.4% | –
CN1CCN(c2ccc(CNC(=O)c3cc4ccccc4o3)cc2)CC1 | – | inconclusive: 29.1 µM [activator, single point]
CC(C)=CC(=O)Nc1nnc(-c2cccnc2)s1 | – | inconclusive: 32.6 µM [activator, single point]
CCOC(=O)c1c(Nc2cccc(C)c2)nnc(-c2ccccc2)c1-c1ccccc1 | – | active: 18.4 µM
O=C(/C=C/c1ccnc2ccccc12)c1cccs1 | – | inconclusive: 0.92 µM [activator, partial curve, poor fit]
Cc1ccc(-c2n[nH]c(=S)c3ccccc23)cc1 | – | inconclusive: 32.6 µM [falling, partial curve, poor fit]
CC(C)CCNC1=NCCCCC1 | inactive: -2% | –

For reference, some entries already given.
SMILES | activity change, negative = inhibition | Potency
O=C(OCCOc1ccccc1Cl)c1cc(S(=O)(=O)N2CCCCC2)ccc1N1CCOCC1 | – | active: 6.51 µM
Cc1cccc(/C=C/C(=O)c2ccc([N+](=O)[O-])o2)c1 | – | inconclusive: 29.1 µM [falling, single point]

(more compounds)

SMILES | activity change, negative = inhibition | Potency
O=C(NCc1ccco1)c1cc2c(s1)CSC2 | – | inconclusive: 2.31 µM [activator, full curve, poor fit]
C[C@@H]1CN(Cc2nc(Cc3ccccc3F)no2)C[C@H](C)O1 | – | inconclusive: 29.1 µM [activator, single point]
COc1ccc(Cl)cc1C(=O)Nc1ccc2c(c1)OCO2 | – | inconclusive: 1.84 µM [activator, full curve]
CCC(=O)c1ccc(N2CCC(C)CC2)c(F)c1 | – | inconclusive: 16.4 µM [activator, partial curve, poor fit]
O=C(Nc1ccccc1)c1csc(-c2ccccc2)n1 | – | inconclusive: 23.1 µM [activator, single point]
CC(C)CCn1c(NCCc2ccccc2)nc2c1c(=O)n(C)c(=O)n2C | – | inconclusive: 18.4 µM [falling, single point]
O=C(CN1CCN(CC(=O)Nc2cccc(F)c2)CC1)Nc1ccc(-c2ccccc2)cc1 | – | inconclusive: 0.0041 µM [falling, full curve, poor fit]
COc1ccc(-n2c(=S)[nH]c3cc(C(=O)N(C)Cc4ccccc4)ccc3c2=O)cc1 | – | inconclusive: 16.4 µM [falling, single point]
CC(=O)COc1ccc2c(C)c(-c3ccccc3)c(=O)oc2c1 | – | inconclusive: 13 µM [activator, partial curve, poor fit]
COc1ccc(Cl)cc1N1C(=O)CN(Cc2cc(OC)c(OC)c(OC)c2)C1=S | – | inconclusive: 25.9 µM [falling, partial curve, poor fit]
CCCOC(=S)Nc1ccccc1 | – | inconclusive: 29.1 µM [activator, single point]
Cc1cc(NC(=O)CSc2nc(C)c(C)c(=O)[nH]2)no1 | – | inconclusive: 5.8 µM [activator, partial curve, poor fit]
CCOC(=O)c1ccc(NC(=O)c2nn(C)c3c2COc2ccccc2-3)cc1 | – | inconclusive: 29.1 µM [activator, single point]
CC(C)(C)c1cc(CCC(=O)NNC(=S)NC(=O)c2ccccc2)cc(C(C)(C)C)c1O | – | active: 2.91 µM
CC(C)c1ccc(OCc2cc(=O)n3c(-c4ccccc4)csc3n2)cc1 | inactive: 1.36% | –
Nc1ccc[n+](CC(=O)c2ccccc2)c1 | – | inconclusive: 14.6 µM [falling, partial curve]
CCCNC(=O)Cn1c(=O)/c(=C/c2ccc(-c3cccc([N+](=O)[O-])c3)o2)s/c1=C\C(=O)C(C)(C)C | inactive: 4.35% | –
O=C(NC1CCCC1)c1ccc([N+](=O)[O-])s1 | – | inconclusive: 5.8 µM [falling, full curve, poor fit]
CC12CCC=CC1C(c1ccc(C(F)(F)F)cc1)N(Cc1ccccc1)C2=O (stereo not drawn) | inactive: -20.1% | –
COc1ccc(C(=O)NNC(=S)NC(=O)c2cccs2)cc1 | – | inconclusive: 11.6 µM [falling, partial curve, poor fit]
Cc1cc(N2CCCC2=O)cc(C)c1S(=O)(=O)NCCOc1ccccc1 | – | inconclusive: 23.1 µM [falling, single point]
